Assay results reported in publication PMC7846785.
These are yes or no findings as the source states them, for the method shown. In cells and extracts the contact can be indirect. Some results given as binding are weak or reduced against the parent protein; the word gives no strength.

By UniProt entry, the sequences of proteins in these tests, tags left out.
UniProt Q9C0K0: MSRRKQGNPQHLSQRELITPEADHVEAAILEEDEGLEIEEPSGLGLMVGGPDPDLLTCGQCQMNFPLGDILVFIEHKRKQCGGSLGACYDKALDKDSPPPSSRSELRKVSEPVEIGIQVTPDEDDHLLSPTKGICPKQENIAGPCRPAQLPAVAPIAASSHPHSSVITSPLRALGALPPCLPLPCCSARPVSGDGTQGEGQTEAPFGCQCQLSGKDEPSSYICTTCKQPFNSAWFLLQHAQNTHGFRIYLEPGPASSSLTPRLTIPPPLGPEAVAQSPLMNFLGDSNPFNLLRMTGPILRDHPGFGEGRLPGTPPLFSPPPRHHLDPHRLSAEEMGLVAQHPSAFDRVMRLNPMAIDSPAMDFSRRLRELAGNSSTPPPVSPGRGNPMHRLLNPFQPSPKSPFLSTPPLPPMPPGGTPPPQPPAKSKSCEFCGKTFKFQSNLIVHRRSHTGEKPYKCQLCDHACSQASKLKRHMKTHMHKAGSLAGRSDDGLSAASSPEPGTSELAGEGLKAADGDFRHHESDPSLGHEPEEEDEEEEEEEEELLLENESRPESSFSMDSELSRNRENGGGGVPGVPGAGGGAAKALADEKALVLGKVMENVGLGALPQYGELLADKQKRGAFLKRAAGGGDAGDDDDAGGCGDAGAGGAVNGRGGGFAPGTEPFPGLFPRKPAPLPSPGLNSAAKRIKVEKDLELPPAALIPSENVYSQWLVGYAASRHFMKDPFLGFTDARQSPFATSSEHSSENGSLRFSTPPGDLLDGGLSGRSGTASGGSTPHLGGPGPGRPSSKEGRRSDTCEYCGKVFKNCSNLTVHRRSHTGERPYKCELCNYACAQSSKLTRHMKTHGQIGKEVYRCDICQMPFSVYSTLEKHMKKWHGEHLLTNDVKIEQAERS
UniProt Q13263: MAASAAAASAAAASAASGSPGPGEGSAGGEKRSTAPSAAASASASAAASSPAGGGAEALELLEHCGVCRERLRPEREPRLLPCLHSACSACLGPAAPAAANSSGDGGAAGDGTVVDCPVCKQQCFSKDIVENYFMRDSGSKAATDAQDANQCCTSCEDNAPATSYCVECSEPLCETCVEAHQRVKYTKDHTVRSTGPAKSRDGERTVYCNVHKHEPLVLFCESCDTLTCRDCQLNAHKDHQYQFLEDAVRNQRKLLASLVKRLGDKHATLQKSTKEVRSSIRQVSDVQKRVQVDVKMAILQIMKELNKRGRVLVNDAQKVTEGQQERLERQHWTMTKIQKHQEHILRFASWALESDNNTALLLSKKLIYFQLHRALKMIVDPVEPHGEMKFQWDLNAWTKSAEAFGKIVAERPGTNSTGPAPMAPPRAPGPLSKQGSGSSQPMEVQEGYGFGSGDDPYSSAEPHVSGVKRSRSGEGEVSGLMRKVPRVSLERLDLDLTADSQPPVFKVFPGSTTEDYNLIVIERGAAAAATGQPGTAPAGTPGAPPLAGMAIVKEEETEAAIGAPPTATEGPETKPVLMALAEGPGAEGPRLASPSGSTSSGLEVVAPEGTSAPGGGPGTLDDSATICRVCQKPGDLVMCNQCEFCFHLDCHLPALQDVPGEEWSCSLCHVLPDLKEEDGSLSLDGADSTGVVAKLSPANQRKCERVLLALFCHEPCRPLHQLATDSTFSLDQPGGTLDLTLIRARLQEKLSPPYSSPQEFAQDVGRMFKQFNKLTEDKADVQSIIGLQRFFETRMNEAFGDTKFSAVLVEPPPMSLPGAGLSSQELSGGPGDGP
UniProt P04608: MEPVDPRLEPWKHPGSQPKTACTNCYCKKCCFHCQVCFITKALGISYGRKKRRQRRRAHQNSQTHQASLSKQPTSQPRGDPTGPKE

Legend:
[1] = molecular target: CTIP2, endogenous in microglial cells (human (endogenous in the human microglial cell line)) (UniProt Q9C0K0); assay: co-IP; nuclear protein extract of microglial cells, endogenous proteins; CTIP2 and KAP1 antibodies on protein A/G magnetic beads; Western blot
[2] = molecular target: KAP1, endogenous in HEK cells (human (endogenous in HEK)) (UniProt Q13263); assay: co-IP; nuclear protein extract of transfected HEK cells; immunoprecipitation of endogenous KAP1 with antibody-coated protein A/G magnetic beads, overnight at 4 °C; low and high salt washes; Western blot
[3] = molecular target: flag-KAP1 (UniProt Q13263); assay: co-IP; 500 μg nuclear protein extract of HEK cells 48 h after transfection, treated or not with RNase; anti-flag M2 gel; washes with low salt (120 mM NaCl) and high salt (0.5 M NaCl) buffers; Western blot

## KAP1, endogenous in microglial cells (from UniProt Q13263 1-835)
[1]
  binding: binds

## HIV-1 Tat (from UniProt P04608 1-86)
[2]
  binding: binds
[3]
  binding: binds
